In article doi:10.1101/2024.07.30.605930 (bioRxiv, 2024):
No constants are given. Whether binding was seen depends on the method and setting. Binding seen in cells or lysates may run through a third protein. Some entries that bind do so weakly or less than the wild type.

Biological target: T1, FliF (Salmonella enterica serovar Typhimurium) (UniProt P15928)
T1 sequence: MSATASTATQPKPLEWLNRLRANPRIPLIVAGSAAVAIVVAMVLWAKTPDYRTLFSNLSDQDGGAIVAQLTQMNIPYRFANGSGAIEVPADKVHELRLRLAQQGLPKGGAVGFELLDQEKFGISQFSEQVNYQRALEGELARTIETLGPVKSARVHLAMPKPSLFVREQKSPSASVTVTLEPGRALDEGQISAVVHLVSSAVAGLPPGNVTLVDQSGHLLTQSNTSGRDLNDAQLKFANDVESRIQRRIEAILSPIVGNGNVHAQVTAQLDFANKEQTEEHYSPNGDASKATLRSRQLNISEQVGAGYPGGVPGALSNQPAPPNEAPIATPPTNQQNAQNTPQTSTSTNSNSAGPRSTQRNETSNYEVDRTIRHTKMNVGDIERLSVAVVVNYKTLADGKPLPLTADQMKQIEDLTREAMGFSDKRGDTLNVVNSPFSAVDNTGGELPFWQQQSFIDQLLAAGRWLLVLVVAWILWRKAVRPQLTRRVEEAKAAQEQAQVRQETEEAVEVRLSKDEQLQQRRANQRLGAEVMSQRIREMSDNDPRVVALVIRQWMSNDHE
Assay: co-sedimentation

B1: FliG (protein, UniProt P0A1J9 1-331)
chain: MSNLSGTDKSVILLMTIGEDRAAEVFKHLSTREVQALSTAMANVRQISNKQLTDVLSEFEQEAEQFAALNINANEYLRSVLVKALGEERASSLLEDILETRDTTSGIETLNFMEPQSAADLIRDEHPQIIATILVHLKRSQAADILALFDERLRHDVMLRIATFGGVQPAALAELTEVLNGLLDGQNLKRSKMGGVRTAAEIINLMKTQQEEAVITAVREFDGELAQKIIDEMFLFENLVDVDDRSIQRLLQEVDSESLLIALKGAEPPLREKFLRNMSQRAADILRDDLANRGPVRLSQVENEQKAILLIVRRLAETGEMVIGSGEDTYV
Q: How did the binding turn out when B1 was run?
A: binds

B2: FlhA (protein, UniProt P40729 1-692)
chain: MANLVAMLRLPSNLKSTQWQILAGPILILLILSMMVLPLPAFILDLLFTFNIALSIMVLLVAMFTQRTLDFAAFPTILLFTTLLRLALNVASTRIILMEGHTGAAAAGKVVEAFGHFLVGGNFAIGIVVFIILVIINFMVITKGAGRIAEVGARFVLDGMPGKQMAIDADLNAGLIGEDEAKKRRSEVTQEADFYGSMDGASKFVRGDAIAGILIMVINVVGGLLVGVLQHGMSIGSAAESYTLLTIGDGLVAQIPALVISTAAGVIVTRVSTDQDVGEQMVGQLFSNPRVMLLAAAVLGLLGMVPGMPNLVFLLFTAALLGLAWWLRGREEKAPEEPQPVKMPENNSVVEATWNDVQLEDSLGMEVGYRLIPMVDFQQDGELLGRIRSIRKKFAQDMGFLPPVVHIRDNMDLQPARYRILMKGVEIGSGDAYPGRWLAINPGTAAGTLPGEKTVDPAFGLDAIWIESALKEQAQIQGFTVVEASTVVATHLNHLIGQFSAELFGRQEAQQLLDRVSQEMPKLTEDLVPGVVTLTTLHKVLQNLLAEKVPIRDMRTILETLAEHAPLQSDPHELTAVVRVALGRAITQQWFPGNEEVQVIGLDTALERLLLQALQGGGGLEPGLADRLLAQTQEALSRQEMLGAPPVLLVNHALRPLLSRFLRRSLPQLVVLSNLELSDNRHIRMTATIGGK
Q: B2 was tested. Which binding did it give?
A: binds
